The values that follow come from the supplement of paper PMC6411743.

By UniProt entry, the sequences of proteins in these tests, tags left out. Where a name states a change or a piece, a line headed by the entry shows the natural chain unless it says otherwise.
UniProt Q86V88: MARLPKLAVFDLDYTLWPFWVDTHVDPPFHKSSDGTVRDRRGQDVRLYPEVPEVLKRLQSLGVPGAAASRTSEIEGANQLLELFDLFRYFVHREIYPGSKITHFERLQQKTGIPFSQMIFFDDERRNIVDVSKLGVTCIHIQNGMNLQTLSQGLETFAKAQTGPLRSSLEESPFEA
UniProt Q8IW45: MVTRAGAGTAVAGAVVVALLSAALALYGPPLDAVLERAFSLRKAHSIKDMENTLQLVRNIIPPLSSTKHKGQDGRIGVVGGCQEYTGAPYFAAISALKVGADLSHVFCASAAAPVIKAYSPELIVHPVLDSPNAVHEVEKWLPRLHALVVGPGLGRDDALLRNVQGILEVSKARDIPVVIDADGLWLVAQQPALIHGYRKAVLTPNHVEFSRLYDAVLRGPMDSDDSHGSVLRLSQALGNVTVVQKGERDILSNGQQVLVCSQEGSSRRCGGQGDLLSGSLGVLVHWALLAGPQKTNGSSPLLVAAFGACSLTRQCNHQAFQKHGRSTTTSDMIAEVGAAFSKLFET
UniProt Q8NBP0: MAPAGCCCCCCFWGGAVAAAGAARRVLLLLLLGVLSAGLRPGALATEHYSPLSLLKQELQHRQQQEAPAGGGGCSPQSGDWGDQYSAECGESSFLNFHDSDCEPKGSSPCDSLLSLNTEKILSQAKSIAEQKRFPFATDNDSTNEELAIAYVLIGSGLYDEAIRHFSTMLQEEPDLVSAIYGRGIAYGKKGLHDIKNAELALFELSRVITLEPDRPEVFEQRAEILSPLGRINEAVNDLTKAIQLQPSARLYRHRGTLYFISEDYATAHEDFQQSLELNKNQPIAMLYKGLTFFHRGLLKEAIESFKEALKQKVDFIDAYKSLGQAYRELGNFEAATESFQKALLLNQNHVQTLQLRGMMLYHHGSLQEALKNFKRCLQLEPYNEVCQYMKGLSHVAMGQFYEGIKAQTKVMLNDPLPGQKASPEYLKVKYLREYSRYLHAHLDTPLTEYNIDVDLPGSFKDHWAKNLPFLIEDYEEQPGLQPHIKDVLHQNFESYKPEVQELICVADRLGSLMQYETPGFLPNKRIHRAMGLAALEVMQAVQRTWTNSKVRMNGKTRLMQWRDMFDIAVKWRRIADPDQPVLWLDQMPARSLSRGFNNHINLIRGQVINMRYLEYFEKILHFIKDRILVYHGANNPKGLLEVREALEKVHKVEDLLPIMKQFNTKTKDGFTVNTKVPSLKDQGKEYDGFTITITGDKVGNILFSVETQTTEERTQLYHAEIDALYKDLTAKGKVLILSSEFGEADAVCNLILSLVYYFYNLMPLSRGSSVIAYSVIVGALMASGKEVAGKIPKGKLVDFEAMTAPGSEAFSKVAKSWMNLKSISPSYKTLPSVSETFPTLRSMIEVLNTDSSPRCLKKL
UniProt Q86VY4: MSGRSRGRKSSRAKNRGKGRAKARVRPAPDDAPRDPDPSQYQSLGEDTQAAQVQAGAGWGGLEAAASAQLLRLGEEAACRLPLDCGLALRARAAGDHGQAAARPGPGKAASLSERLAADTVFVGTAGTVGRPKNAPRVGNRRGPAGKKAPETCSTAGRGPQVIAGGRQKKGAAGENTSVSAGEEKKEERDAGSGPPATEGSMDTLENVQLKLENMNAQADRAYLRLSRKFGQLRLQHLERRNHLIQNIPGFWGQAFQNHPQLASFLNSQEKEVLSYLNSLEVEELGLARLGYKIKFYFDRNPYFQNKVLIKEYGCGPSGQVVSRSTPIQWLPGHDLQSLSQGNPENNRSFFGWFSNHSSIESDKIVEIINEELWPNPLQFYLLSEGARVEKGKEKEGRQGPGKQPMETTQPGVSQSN
UniProt Q8N511: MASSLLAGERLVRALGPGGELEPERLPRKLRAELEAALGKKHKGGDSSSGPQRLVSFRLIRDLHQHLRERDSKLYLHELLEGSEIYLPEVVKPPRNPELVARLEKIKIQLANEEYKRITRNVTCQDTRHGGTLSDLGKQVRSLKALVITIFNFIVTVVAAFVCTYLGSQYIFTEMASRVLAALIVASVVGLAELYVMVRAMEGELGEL
UniProt Q8N163, whole entry: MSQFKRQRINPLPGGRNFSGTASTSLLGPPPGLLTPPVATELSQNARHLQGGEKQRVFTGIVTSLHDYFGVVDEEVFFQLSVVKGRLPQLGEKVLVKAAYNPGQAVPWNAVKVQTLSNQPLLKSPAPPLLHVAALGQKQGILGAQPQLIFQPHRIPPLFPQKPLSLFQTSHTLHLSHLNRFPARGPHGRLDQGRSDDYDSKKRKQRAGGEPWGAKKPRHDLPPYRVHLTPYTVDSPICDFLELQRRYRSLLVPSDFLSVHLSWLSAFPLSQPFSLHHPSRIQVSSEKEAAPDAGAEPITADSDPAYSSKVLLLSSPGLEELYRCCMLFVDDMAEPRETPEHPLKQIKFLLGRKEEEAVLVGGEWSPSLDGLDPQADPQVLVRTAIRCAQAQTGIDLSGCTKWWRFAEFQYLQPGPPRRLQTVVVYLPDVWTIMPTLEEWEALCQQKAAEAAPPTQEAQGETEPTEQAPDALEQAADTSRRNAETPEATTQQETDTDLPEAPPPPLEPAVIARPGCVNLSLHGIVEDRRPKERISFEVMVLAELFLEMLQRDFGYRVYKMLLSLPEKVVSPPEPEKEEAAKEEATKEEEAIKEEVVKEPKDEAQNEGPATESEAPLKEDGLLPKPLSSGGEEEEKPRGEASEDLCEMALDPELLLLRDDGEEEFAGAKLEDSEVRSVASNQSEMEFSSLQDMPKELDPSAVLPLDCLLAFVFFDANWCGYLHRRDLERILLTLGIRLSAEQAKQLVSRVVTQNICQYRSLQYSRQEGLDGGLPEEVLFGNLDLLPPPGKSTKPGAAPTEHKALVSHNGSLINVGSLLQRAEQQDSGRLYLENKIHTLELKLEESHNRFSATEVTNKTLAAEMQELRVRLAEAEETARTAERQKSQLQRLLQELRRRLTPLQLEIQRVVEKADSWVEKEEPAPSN
UniProt Q8N488: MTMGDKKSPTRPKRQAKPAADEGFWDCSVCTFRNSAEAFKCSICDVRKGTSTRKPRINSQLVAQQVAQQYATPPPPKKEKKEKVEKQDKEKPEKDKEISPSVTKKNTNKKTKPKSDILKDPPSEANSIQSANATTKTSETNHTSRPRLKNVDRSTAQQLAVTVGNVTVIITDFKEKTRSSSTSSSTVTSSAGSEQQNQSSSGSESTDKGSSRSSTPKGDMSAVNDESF
UniProt Q86W92: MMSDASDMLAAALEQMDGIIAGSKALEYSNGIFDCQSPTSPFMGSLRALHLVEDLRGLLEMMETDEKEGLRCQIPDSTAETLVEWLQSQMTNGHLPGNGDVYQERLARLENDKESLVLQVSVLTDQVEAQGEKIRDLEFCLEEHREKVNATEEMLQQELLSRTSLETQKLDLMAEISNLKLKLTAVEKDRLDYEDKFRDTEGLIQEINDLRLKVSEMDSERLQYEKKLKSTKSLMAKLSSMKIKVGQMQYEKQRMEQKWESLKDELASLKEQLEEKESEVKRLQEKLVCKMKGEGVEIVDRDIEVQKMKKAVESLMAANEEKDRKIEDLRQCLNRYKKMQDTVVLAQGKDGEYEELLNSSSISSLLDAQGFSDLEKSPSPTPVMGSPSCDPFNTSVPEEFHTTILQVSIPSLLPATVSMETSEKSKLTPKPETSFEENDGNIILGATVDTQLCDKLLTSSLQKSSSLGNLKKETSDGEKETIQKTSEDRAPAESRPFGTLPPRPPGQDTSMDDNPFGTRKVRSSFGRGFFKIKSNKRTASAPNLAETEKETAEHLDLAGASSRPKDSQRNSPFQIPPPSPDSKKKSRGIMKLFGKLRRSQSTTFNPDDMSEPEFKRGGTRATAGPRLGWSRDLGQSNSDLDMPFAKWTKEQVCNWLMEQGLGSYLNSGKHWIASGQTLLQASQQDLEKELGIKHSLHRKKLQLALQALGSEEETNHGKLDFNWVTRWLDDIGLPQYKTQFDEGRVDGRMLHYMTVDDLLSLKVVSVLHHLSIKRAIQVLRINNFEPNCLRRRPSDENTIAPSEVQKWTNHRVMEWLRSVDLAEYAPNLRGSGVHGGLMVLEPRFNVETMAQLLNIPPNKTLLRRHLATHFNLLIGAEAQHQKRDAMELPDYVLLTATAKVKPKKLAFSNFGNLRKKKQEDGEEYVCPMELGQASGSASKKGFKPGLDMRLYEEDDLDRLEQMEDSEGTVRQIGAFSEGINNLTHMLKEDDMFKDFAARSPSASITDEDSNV
UniProt Q86TP1: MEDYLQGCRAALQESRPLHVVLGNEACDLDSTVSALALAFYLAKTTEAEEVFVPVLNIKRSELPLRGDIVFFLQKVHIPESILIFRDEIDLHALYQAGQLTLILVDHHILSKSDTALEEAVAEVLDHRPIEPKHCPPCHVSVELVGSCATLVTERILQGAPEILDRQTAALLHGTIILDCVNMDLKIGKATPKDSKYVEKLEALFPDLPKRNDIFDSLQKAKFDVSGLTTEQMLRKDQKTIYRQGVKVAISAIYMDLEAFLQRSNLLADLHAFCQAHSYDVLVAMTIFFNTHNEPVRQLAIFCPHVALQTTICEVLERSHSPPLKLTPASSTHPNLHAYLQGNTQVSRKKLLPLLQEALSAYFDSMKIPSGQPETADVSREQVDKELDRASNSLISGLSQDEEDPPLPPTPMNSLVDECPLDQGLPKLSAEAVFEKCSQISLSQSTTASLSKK
UniProt Q8IZ81: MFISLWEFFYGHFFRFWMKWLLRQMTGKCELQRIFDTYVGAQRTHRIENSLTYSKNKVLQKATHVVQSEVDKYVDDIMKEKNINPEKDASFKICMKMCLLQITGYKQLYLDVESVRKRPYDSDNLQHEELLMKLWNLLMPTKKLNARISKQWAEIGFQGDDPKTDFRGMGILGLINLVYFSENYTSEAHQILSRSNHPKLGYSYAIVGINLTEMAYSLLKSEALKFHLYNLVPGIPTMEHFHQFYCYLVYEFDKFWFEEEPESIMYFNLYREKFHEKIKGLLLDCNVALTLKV
UniProt Q86WR0: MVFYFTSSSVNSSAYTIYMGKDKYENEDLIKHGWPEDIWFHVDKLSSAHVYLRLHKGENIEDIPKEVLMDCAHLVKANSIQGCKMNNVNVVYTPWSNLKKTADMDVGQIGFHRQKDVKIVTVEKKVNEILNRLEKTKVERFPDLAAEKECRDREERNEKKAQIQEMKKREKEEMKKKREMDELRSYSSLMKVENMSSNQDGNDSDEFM
UniProt Q8IXT5: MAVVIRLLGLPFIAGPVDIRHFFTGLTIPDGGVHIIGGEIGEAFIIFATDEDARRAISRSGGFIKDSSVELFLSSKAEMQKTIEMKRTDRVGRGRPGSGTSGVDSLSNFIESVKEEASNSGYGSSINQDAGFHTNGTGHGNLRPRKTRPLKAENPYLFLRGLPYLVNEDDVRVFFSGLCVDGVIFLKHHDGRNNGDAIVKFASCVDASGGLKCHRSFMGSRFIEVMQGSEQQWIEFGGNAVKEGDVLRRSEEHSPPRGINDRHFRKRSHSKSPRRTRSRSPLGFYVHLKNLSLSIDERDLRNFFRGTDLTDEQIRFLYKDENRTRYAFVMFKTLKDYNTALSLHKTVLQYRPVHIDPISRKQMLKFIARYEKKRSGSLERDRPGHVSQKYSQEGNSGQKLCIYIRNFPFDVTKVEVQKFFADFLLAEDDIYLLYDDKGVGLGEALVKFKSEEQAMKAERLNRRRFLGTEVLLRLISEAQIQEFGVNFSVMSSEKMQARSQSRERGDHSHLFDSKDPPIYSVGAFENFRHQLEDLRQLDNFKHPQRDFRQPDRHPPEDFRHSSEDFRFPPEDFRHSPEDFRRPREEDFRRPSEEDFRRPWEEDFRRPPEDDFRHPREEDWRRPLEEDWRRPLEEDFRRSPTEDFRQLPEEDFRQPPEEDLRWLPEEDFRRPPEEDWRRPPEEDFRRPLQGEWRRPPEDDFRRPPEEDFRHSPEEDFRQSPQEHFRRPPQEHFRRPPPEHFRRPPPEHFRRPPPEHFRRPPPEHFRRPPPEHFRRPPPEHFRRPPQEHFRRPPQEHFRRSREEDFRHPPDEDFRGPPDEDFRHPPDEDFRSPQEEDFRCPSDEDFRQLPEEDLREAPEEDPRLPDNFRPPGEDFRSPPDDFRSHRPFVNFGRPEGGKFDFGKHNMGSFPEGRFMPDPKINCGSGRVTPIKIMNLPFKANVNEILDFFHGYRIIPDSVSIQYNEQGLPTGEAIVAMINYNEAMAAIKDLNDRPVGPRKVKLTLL
UniProt Q86WV1: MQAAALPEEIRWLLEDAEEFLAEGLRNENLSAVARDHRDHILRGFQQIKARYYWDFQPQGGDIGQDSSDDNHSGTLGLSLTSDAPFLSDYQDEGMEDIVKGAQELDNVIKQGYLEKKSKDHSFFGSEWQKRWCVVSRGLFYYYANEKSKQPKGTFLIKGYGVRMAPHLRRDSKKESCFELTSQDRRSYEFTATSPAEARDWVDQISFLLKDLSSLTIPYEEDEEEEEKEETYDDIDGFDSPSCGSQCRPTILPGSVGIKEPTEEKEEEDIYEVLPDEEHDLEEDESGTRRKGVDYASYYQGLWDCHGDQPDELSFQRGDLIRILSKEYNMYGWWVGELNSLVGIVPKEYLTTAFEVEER

Compound in this assay: Nc1ncnc2c1ncn2[C@@H]1O[C@H](COP(=O)(O)OP(=O)(O)NP(=O)(O)O)[C@@H](O)[C@H]1O [adenylyl imidodiphosphate]
The experiment in a line: NP40-soluble protein abundance relative to vehicle (solubility fold change) (ratio); higher = more soluble protein in presence of AMP-PNP. The procedure, abridged:
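Crude Jurkat lysate, prepared by Dounce homogenisation, was exposed to eight concentrations from 0.1 to 10 mM for 10 min at room temperature and then 3 min at 37 °C. Solubilisation used 0.8% NP40 with benzonase for 60 min at 4 °C, followed by ultracentrifugation and TMT labelling of the supernatant for LC-MS/MS. After vsn normalisation of intensities, each value is the fold change against the detergent-processed vehicle within each replicate, across three independent experiments.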

± gives the standard deviation of the averaged measurements. Only a part is listed here, and it is no random draw.

For the target UniProt Q86V88 and related entries, the NP40-soluble protein abundance stood at 0.994 ± 0.051 (concentration: 1mM); 0.983 ± 0.028 (concentration: 2mM); 0.966 ± 0.031 (concentration: 4mM); 0.98 ± 0.014 (concentration: 6mM); 0.993 ± 0.034 (concentration: 8mM); 0.975 ± 0.019 (concentration: 10mM).

For the target UniProt Q8IW45, the NP40-soluble protein abundance by setting is: (concentration: 1mM) 0.989 ± 0.02; (concentration: 2mM) 0.968 ± 0.033; (concentration: 4mM) 1.006 ± 0.0069; (concentration: 6mM) 0.969 ± 0.012; (concentration: 8mM) 0.983 ± 0.018; (concentration: 10mM) 0.982 ± 0.029.

Take UniProt Q8NBP0 and related entries: the NP40-soluble protein abundance runs as follows: (concentration: 1mM) 0.998 ± 0.019; (concentration: 2mM) 0.97 ± 0.025; (concentration: 4mM) 0.9847 ± 0.0052; (concentration: 6mM) 0.984 ± 0.025; (concentration: 8mM) 0.992 ± 0.032; (concentration: 10mM) 0.991 ± 0.027.

For TSPYL5 (UniProt Q86VY4), the NP40-soluble protein abundance reads like this: (concentration: 1mM) 1.06 ± 0.032; (concentration: 2mM) 1.09 ± 0.09; (concentration: 4mM) 1.06 ± 0.06; (concentration: 6mM) 1.08 ± 0.041; (concentration: 8mM) 1.09 ± 0.028; (concentration: 10mM) 1.12 ± 0.054.

As for UniProt Q8N511 and related entries, the NP40-soluble protein abundance reads like this: (concentration: 1mM) 1.01 ± 0.022; (concentration: 2mM) 1.03 ± 0.045; (concentration: 4mM) 1.032 ± 0.0041; (concentration: 6mM) 1.07 ± 0.023; (concentration: 8mM) 1.09 ± 0.018; (concentration: 10mM) 1.07 ± 0.026.

With FTSJ3 (UniProt Q8IY81), the NP40-soluble protein abundance (concentration: 1mM) was found to be 1.02 ± 0.031; the NP40-soluble protein abundance (concentration: 2mM) worked out at 1.08 ± 0.09; the NP40-soluble protein abundance (concentration: 4mM) was 1.06 ± 0.013; the NP40-soluble protein abundance (concentration: 6mM) was 1.069 ± 0.0079; the NP40-soluble protein abundance (concentration: 8mM) worked out at 1.04 ± 0.0048; the NP40-soluble protein abundance (concentration: 10mM) was found to be 1.1 ± 0.031.

On to UniProt Q8N163, for which the NP40-soluble protein abundance was determined as 0.929 ± 0.1 (concentration: 1mM); 0.889 ± 0.052 (concentration: 2mM); 0.849 ± 0.088 (concentration: 4mM); 0.799 ± 0.11 (concentration: 6mM); 0.757 ± 0.056 (concentration: 8mM); 0.754 ± 0.082 (concentration: 10mM).

UniProt Q8IVB4: the NP40-soluble protein abundance is, setting by setting: (concentration: 1mM) 0.987 ± 0.029; (concentration: 2mM) 0.9945 ± 0.004; (concentration: 4mM) 0.973 ± 0.034; (concentration: 6mM) 0.99507 ± 0.00094; (concentration: 8mM) 0.972 ± 0.05; (concentration: 10mM) 0.9566 ± 0.0083.

In the case of LMTK2 (UniProt Q8IWU2), the NP40-soluble protein abundance amounted to 1.021 ± 0.0014 (concentration: 1mM); 0.991 ± 0.022 (concentration: 2mM); 0.994 ± 0.014 (concentration: 4mM); 1 ± 0.026 (concentration: 6mM); 1.0012 ± 0.00042 (concentration: 8mM); 0.972 ± 0.014 (concentration: 10mM).

Turning to RYBP (UniProt Q8N488), the NP40-soluble protein abundance came out at 0.996 ± 0.025 (concentration: 1mM); 1.07 ± 0.079 (concentration: 2mM); 1.01 ± 0.041 (concentration: 4mM); 1.04 ± 0.032 (concentration: 6mM); 1.01 ± 0.021 (concentration: 8mM); 1.03 ± 0.037 (concentration: 10mM).

With DIS3L2 (UniProt Q8IYB7), the NP40-soluble protein abundance turned out to be 0.982 ± 0.03 (concentration: 1mM); 0.963 ± 0.051 (concentration: 2mM); 0.978 ± 0.032 (concentration: 4mM); 0.9473 ± 0.0089 (concentration: 6mM); 0.937 ± 0.016 (concentration: 8mM); 0.927 ± 0.032 (concentration: 10mM).

With UniProt Q86W92 and related entries, the NP40-soluble protein abundance worked out at 1.05 ± 0.018 (concentration: 1mM); 1.07 ± 0.018 (concentration: 2mM); 1.06 ± 0.016 (concentration: 4mM); 1.01 ± 0.026 (concentration: 6mM); 1.02 ± 0.029 (concentration: 8mM); 1.02 ± 0.029 (concentration: 10mM).

On to UniProt Q86TP1 and related entries, for which the NP40-soluble protein abundance (concentration: 1mM) was 1.05 ± 0.04; the NP40-soluble protein abundance (concentration: 2mM) is 1.04 ± 0.031; the NP40-soluble protein abundance (concentration: 4mM) turned out to be 1.021 ± 0.0092; the NP40-soluble protein abundance (concentration: 6mM) amounted to 0.995 ± 0.047; the NP40-soluble protein abundance (concentration: 8mM) was 1.01 ± 0.054; the NP40-soluble protein abundance (concentration: 10mM) was 0.974 ± 0.034.

As to UniProt Q8IZ81 and related entries, the NP40-soluble protein abundance by setting is: (concentration: 1mM) 0.945 ± 0.039; (concentration: 2mM) 0.929 ± 0.035; (concentration: 4mM) 0.929 ± 0.051; (concentration: 6mM) 0.932 ± 0.049; (concentration: 8mM) 0.933 ± 0.046; (concentration: 10mM) 0.9465 ± 0.0094.

In the case of CCDC25 (UniProt Q86WR0), the NP40-soluble protein abundance amounted to 1.02 ± 0.035 (concentration: 1mM); 1.01 ± 0.021 (concentration: 2mM); 0.9961 ± 0.0019 (concentration: 4mM); 1.02 ± 0.019 (concentration: 6mM); 1.03 ± 0.019 (concentration: 8mM); 1.03 ± 0.039 (concentration: 10mM).

Regarding RBM12B (UniProt Q8IXT5), the NP40-soluble protein abundance is, setting by setting: (concentration: 1mM) 1.01 ± 0.035; (concentration: 2mM) 1.02 ± 0.022; (concentration: 4mM) 1.046 ± 0.0077; (concentration: 6mM) 1.11 ± 0.038; (concentration: 8mM) 1.12 ± 0.048; (concentration: 10mM) 1.11 ± 0.056.

Take UniProt Q86WV1 and related entries: the NP40-soluble protein abundance by setting is: (concentration: 1mM) 0.999 ± 0.048; (concentration: 2mM) 0.978 ± 0.019; (concentration: 4mM) 0.997 ± 0.072; (concentration: 6mM) 0.962 ± 0.072; (concentration: 8mM) 0.96 ± 0.068; (concentration: 10mM) 1.02 ± 0.11.
